# Data as given in publication PMC8155215, “The splicing factor XAB2 interacts with ERCC1-XPF and XPG for R-loop processing”.
# Protein sequences, listed by entry. Tags and fused reporters are not part of them.
# UniProt Q64267: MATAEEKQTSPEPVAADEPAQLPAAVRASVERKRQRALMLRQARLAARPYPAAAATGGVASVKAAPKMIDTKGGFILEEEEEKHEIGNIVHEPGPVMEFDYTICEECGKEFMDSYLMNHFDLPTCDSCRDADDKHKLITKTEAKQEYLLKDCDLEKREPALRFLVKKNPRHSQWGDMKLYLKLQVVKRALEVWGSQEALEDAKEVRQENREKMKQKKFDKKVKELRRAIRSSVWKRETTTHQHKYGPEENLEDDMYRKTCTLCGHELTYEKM
# UniProt Q99KP6: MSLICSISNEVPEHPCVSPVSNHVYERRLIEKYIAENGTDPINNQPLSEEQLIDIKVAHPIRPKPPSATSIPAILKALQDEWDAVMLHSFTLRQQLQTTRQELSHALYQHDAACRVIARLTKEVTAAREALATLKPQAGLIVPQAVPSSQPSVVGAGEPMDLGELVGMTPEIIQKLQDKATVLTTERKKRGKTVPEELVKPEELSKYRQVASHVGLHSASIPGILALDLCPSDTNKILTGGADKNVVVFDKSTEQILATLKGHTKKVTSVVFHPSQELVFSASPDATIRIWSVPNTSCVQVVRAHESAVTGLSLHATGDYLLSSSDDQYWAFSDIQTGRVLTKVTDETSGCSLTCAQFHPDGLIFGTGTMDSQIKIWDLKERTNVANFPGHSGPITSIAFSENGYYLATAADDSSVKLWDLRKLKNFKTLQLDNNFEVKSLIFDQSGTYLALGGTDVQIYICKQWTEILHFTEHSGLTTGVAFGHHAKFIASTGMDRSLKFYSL
# No constants are given. Whether binding was seen depends on the method and setting. Binding seen in cells or lysates may run through a third protein. Some entries that bind do so weakly or less than the wild type. Sequences can lack the tags named with a protein.
# T1: biotin-tagged XAB2 (XPA-binding protein 2) from aviXab2+/+;birA knock-in mice (mouse) (UniProt Q9DCD2)
# T1 sequence (chain, biotin on the 15aa Avitag (added in vivo by the BirA ligase)): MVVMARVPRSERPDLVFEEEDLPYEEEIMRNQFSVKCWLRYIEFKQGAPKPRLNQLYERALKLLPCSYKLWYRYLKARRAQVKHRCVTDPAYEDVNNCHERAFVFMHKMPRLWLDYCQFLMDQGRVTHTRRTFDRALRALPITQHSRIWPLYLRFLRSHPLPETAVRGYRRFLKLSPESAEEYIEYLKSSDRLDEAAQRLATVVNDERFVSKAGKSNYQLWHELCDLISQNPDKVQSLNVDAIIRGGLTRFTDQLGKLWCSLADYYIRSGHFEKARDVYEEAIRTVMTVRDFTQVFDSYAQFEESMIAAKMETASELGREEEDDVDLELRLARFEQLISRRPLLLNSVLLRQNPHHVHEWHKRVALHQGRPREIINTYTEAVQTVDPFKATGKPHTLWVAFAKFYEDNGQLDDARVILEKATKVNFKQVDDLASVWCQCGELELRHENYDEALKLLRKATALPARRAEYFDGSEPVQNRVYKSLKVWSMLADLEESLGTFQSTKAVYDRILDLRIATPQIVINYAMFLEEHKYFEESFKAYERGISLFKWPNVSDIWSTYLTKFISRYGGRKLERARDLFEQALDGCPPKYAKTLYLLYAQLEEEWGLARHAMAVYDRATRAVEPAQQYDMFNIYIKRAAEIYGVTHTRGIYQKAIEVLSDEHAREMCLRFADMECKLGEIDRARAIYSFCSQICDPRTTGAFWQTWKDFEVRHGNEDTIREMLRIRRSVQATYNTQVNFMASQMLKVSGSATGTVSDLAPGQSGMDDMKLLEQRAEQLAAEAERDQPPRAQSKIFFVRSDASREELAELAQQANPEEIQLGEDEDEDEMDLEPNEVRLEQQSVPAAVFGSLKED
# T2: biotin-tagged xeroderma pigmentosum complementation F (bXPF) (mouse) (UniProt Q9QZD4)
# T2 sequence (chain, biotin (biotin-tagged)): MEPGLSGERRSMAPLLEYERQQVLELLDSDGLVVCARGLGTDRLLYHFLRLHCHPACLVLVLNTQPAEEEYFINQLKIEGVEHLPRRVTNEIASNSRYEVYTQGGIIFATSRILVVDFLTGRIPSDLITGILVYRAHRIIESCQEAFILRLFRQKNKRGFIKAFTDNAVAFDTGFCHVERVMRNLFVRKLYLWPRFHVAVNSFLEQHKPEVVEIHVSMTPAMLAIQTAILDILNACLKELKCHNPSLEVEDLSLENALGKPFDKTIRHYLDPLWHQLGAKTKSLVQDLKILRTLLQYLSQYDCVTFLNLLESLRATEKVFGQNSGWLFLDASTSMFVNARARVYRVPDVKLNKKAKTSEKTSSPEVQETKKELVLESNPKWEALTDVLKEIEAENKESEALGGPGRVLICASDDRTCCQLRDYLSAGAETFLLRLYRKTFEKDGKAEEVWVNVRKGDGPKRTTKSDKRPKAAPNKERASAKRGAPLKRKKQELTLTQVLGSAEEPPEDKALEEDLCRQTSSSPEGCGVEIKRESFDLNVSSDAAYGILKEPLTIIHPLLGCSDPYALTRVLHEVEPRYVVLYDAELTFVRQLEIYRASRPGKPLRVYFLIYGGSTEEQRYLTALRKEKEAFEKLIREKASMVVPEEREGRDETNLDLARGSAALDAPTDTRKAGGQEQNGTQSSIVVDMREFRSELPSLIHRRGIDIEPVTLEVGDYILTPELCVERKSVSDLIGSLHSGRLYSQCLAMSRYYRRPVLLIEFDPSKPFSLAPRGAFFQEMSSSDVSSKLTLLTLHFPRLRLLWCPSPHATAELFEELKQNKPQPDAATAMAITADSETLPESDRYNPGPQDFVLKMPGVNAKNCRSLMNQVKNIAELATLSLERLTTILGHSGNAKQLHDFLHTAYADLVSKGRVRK
# What was measured:
# [1] = molecular target: T1, biotin-tagged XAB2 (XPA-binding protein 2) from aviXab2+/+;birA knock-in mice (mouse); assay: pull-down; bXAB2 captured on M-280 streptavidin beads from nuclear extracts of primary bXAB2 MEFs, western blot; untreated, UV-irradiated (10 J/m2) or tRA-treated cells; BirA MEFs as control
# [2] = molecular target: T1, biotin-tagged XAB2 (XPA-binding protein 2) from aviXab2+/+;birA knock-in mice (mouse); assay: pull-down; bXAB2 captured on M-280 streptavidin beads from nuclear extracts of P15 bXAB2 livers, western blot; BirA livers as control
# [3] = molecular target: T1, biotin-tagged XAB2 (XPA-binding protein 2) from aviXab2+/+;birA knock-in mice (mouse); assay: pull-down; bXAB2 captured on streptavidin beads from nuclear extracts of bXAB2 MEFs (basal or tRA-treated), with RNase H treatment, western blot
# [4] = molecular target: T1, biotin-tagged XAB2 (XPA-binding protein 2) from aviXab2+/+;birA knock-in mice (mouse); assay: pull-down; bXAB2 captured on M-280 streptavidin beads from nuclear extracts of primary bXAB2 MEFs, western blot; untreated, UV-irradiated (10 J/m2) or tRA-treated cells; BirA MEFs as control; remark: listed apart in the source
# [5] = molecular target: T2, biotin-tagged xeroderma pigmentosum complementation F (bXPF) (mouse); assay: pull-down; bXPF captured on M-280 streptavidin beads from nuclear extracts of tRA-treated cells, western blot; said to be independent of DNA
binding [1],binding [2],binding [4],Molecule,also measured
binds,,,"xeroderma pigmentosum, complementation group A protein (XPA) (from UniProt Q64267 1-272)",
binds,binds,,pre-mRNA-processing factor 19 (PRP19) (from UniProt Q99KP6 1-504),binding [3]: binds
,,binds,"SNRP40 (protein, UniProt Q6PE01 1-358) MIEQQKRKGPELPLVPVKRPRHELLLGAAGAGPGAGPQQATPGALLQAGPPRCSSLQAPIMLLSGHEGEVYCCKFHPNGSTLASAGFDRLILLWNVYGDCDNYATLKGHSGAVMELHYNTDGSMLFSASTDKTVAVWDSETGERVKRLKGHTSFVNSCYPARRGPQLVCTGSDDGTVKLWDIRKKAAVQTFQNTYQVLAVTFNDTSDQIISGGIDNDIKVWDLRQNKLTYTMRGHADSVTGLSLSSEGSYLLSNAMDNTVRVWDVRPFAPKERCVKIFQGNVHNFEKNLLRCSWSPDGSKIAAGSADRFVYVWDTTSRRVLYKLPGHAGSINEVAFHPDEPIILSASSDKRLYMGEIQ",
,,,"XPG endonuclease (protein, UniProt P35689 1-1170) MGVQGLWKLLECSGHRVSPEALEGKVLAVDISIWLNQALKGVRDSHGNVIENAHLLTLFHRLCKLLFFRIRPIFVFDGDAPLLKKQTLAKRRQRKDSASIDSRKTTEKLLKTFLKRQALKTAFRSSRHEAPPSLTQVQRQDDIYVLPPLPEEEKHSSEEEDEKQWQARMDQKQALQEEFFHNPQAIDIESEDFSSLPPEVKHEILTDMKEFTKRRRTLFEAMPEESNDFSQYQLKGLLKKNYLNQHIENVQKEMNQQHSGQIQRQYQDEGGFLKEVESRRVVSEDTSHYILIKGIQGKKVMDVDSESLPSSSNVHSVSSNLKSSPHEKVKPEREPEAAPPSPRTLLAIQAAMLGSSSEDEPESREGRQSKERNSGATADAGSISPRTCAAIQKALDDDNDEKVSGSSDDLAEKMLLGSGLEQEEHADETAERGGGVPFDTAPLTPSVTEVKECVTSGSSANGQTDSAHSFTTASHRCDTPKETVSLARAVKEASQISSECEVEGRPAALSPAFIGTPSSHVSGVLSEREPTLAPPTTRTHSDQGIDIHPEDPELQNGLYPLETKCNSSRLSSDDETEGGQNPAPKACSTVHVPAEAMSNLENALPSNAEERGDFQETIQLREVPEAAARELISAPKPMGPMEMESEESESDGSFIEVQSVVSNSELQTESSEASTHLSEKDAEEPRETLEEGTSRDTECLLQDSSDIEAMEGHREADIDAEDMPNEWQDINLEELDALESNLLAEQNSLKAQKQQQDRIAASVTGQMFLESQELLRLFGVPYIQAPMEAEAQCAMLDLTDQTSGTITDDSDIWLFGARHVYKNFFNKNKFVEYYQYVDFYSQLGLDRNKLINLAYLLGSDYTEGIPTVGCVTAMEILNEFPGRGLDPLLKFSEWWHEAQNNKKVAENPYDTKVKKKLRKLQLTPGFPNPAVADAYLRPVVDDSRGSFLWGKPDVDKISTFCQRYFGWNRMKTDESLYPVLKHLNAHQTQLRIDSFFRLAQQEKQDAKLIKSHRLNRAVTCILRKEREEKAPELTKVTEALDDAKGKTQKRELPYKKETSVPKRRRPSGNGGFLGDPYCSESPQESSCEDGEGSSVMSARQRSAAESSKISCSDVPDLVRDPPHGRQGCVSTSSSSEDDEDKAKTVLVTARPVFGKKKLKLKSMKRRKKKT",binding [5]: binds
,binds,binds,"BCAS2 (protein, UniProt Q9D287 1-225) MAGTGLVAGEVVVDALPYFDQGYEAPGVREAAAALVEEETRRYRPTKNYLSYLTAPDYSAFETDIMRNEFERLAARQPIELLSMKRYELPAPSSGQKNDITAWQECVNNSMAQLEHQAVRIENLELMSQHGCNAWKVYNENLVHMIEHAQKELQKLRKHIQDLNWQRKNMQLTAGSKLREMESNWVSLVSKNYEIERTIVQLENEIYQIKQQHGEANKENIRQDF",
,binds,,"Aquarius (AQR) (protein, UniProt Q8CFQ3 1-1481) MAAPAQPKKIVAPTVSQINAEFVTQLACKYWAPHIKKKSPFDIKVIEEIYEKEIVKSRFAIRKIMLLEFSQYLENYLWMNYSPEVSSKAYLMSICCMVNEKFRENVPAWETFKKKPDHFPFFFKCILKAALAETDGEFSLHEQTLLLLFLDHCFNSLEVDLIRSQVQQLISLPMWMGLQPARLELELKKTPKLRKFWNLIKKNDEKMDPEAREQAYQERRFLSRLIQKFISVLKSIPLSEPVTMDKVHYCERFIELMIDLEALLPTRRWFNTILDDSHLLVHCYLSSLVHREEDGHLFSQLLDMLKFYTGFEINDQTGNALTENEMTTIHYDRITSLQRAAFAHFPELYDFALSNVAEVDARDSLVKFFGPLSSNTLHQVASYLCLLPTLPKNEDTTFDKEFLLELLVSRHERRISQIQQLNQMPLYPTEKIIWDENIVPTEYYSGEGCLALPKLNLQFLTLHDYLLRNFNLFRLESTYEIRQDIEDSVSRMKPWQSEYGGVVFGGWARMAQPIVAFTVVEVAKPNIGENWPTRVRADVTINLNVRDHIKDEWEGLRKHDVCFLITVRPTKPYGTKFDRRRPFIEQVGLVYVRGCEIQGMLDDKGRVIEDGPEPRPNLRGESRTFRVFLDPNQYQQDMTNTIQNGAEDVYDTFNVIMRRKPKENNFKAVLETIRNLMNTDCVVPDWLHDIILGYGDPSSAHYSKMPNQIATLDFNDTFLSIEHLKASFPGHNVKVTVSDPALQIPPFRITFPVRSGKGKKRKDADGEEDDTEEAKTLIVEPHVIPNRGPYPYNQPKRNTIQFTHTQIEAIRAGMQPGLTMVVGPPGTGKTDVAVQIISNIYHNFPEQRTLIVTHSNQALNQLFEKIMALDIDERHLLRLGHGEEELETEKDFSRYGRVNYVLARRIELLEEVKRLQKSLGVPGDASYTCETAGYFFLYQVMSRWEEYMSRVKNSGTACPDAAPDAAQVATFFPFHEYFANAPQPIFKGRSYEEDMEIAEGCFRHIKKIFTQLEEFRASELLRSGLDRSKYLLVKEAKIIAMTCTHAALKRHDLVKLGFKYDNILMEEAAQILEIETFIPLLLQNPQDGFSRLKRWIMIGDHHQLPPVIKNMAFQKYSNMEQSLFTRFVRVGVPTVDLDAQGRARASLCNLYNWRYKNLGNLPHVQLLPEFSTANAGLLYDFQLINVEDFQGVGESEPNPYFYQNLGEAEYVVALFMYMCLLGYPADKISILTTYNGQKHLIRDIINRRCGNNPLIGRPNKVTTVDRFQGQQNDYILLSLVRTRAVGHLRDVRRLVVAMSRARLGLYIFARVSLFQNCFELTPAFSQLTARPLHLHIIPTEPFPTSRKNGERPPHEVQVIKNMPQMANFVYNMYMHLIQTTHHYHQTFLQLPPAMVEEGEEGQSQETEMEAEEETVSAQGNLTPSPADASLSQETPAAQPDCSSQTEDTSAPCDIATAAEPVSAAAEAATPQDAESVPTETE",
